The results are deposited in PubChem (AID912; NCATS, 2007).

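A cell-based FRET test of anthrax lethal toxin entry, tracked through the 460 nm emission signal; the cell line is not named here. Each compound was tested as a concentration series from about 0.0005 to 40 µM. The number is the fitted AC50 of the 460 nm signal alone; lower values mean a more potent effect. A falling signal goes with compounds filed as inhibitors or cytotoxic, a rising one with activators or fluorescent compounds (inferred from the filed classes).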

Values are in µM. Common to all entries: measured here: 460 nm channel. This is a side read-out of the assay, for part of the compounds, not drawn at random. Potencies fitted to partial, single-point or poorly fitting curves are rough. The first word of each remark tells which way the curve ran; it can be opposite to the aim of the assay.

| SMILES | AC50 (µM) | curve as filed |
|---|---|---|
| `Cc1ccc2nc(NC(=O)c3cccs3)sc2c1` | 5.012 | falling, partial curve |
| `Cn1c(=O)c2c(nc(NCCc3ccccc3)n2Cc2ccc(F)cc2)n(C)c1=O` | 6.31 | falling, partial curve, poor fit |
| `Cc1cccc2cc(C#N)c(NCCCn3ccnc3)nc12` | 10 | rising, partial curve |
| `O=C1OCCC1Sc1nc2cc(Cl)ccc2s1` (stereo not shown) | 0.01 | rising, full curve, poor fit |
| `O=C(CSc1nnc(CCCO)n1-c1ccccc1)NCCc1ccccc1` | 5.012 | rising, partial curve |
| `Cc1c(CN2CCC(C)CC2)c(=O)n(-c2ccccc2)n1C` | 12.59 | rising, single point |
| `Cc1ccccc1-n1c(SCc2ccccn2)nc2n[nH]c(C)c2c1=N` | 10 | falling, partial curve, poor fit |
| `NC[C@H](CP(=O)(O)O)c1ccc(Cl)cc1` | 2.512 | falling, full curve |
| `CC(c1ccccc1)n1cc(C(=O)NCC2CCCO2)nn1` (stereo not shown) | 19.95 | rising, single point |
| `O=C(CSc1nnc2c(Cl)cc(Cl)cn12)N1CCN(S(=O)(=O)c2ccccc2)CC1` | 10 | rising, partial curve |
| `CCN1c2ccccc2-c2nc3ccccc3n2C1c1ccccn1` (stereo not shown) | 2.512 | rising, partial curve |
| `Cc1cc(OCCCCCNCCO)cc(C)c1Cl` | 31.62 | falling, single point |
| `COC(=O)c1c(C)[nH]c(C)c1C(=O)c1ccccc1Cc1ccccc1` | 25.12 | falling, partial curve |
| `O=C1c2cccc3cccc(c23)C(=O)N1c1cccnc1` | 10 | falling, single point |
| `CCOC(=O)c1ccc(N2C(=O)CC(SCC(N)C(=O)OCC)C2=O)cc1` (stereo not shown) | 1.259 | falling, partial curve |
| `Cc1cc2ccccc2n1CCNC(=O)c1cccs1` | 3.981 | falling, partial curve |
| `Cc1ccc(-n2nnnc2SCC(=O)c2cc(C)n(-c3cc(C)on3)c2C)c(C)c1` | 10 | falling, partial curve |
| `Cc1cc(-n2c(C)cc(C(=O)CSc3ncnc4ccccc34)c2C)no1` | 5.012 | falling, single point |
| `C#CCCCO/N=C1/C[C@@H](O)[C@@H](O)[C@@H]2[C@@H]3C(=O)N(CCC(=O)OCC)C(=O)[C@H]3CC[C@H]12` | 5.012 | rising, single point |
| `Cn1cccc1C(=O)N1CCC2(CCN(Cc3nccs3)CC2)CC1` | 6.31 | rising, partial curve |
| `CCNc1ncc2nc(-c3cn(C)c4ccccc34)c(=O)n(C[C@H]3CCCO3)c2n1` | 3.162 | rising, partial curve |
| `Cn1cc(C2=C(c3ccc(Cl)cc3Cl)C(=O)NC2=O)c2ccccc21` | 19.95 | falling, partial curve |
| `CCOC(=O)c1sc2c(c1C)C(c1cccs1)C1=C(CCCC1=O)N2` (stereo not shown) | 10 | rising, single point |
| `O=C(Oc1ccccc1)N1CCC2(CCCN(c3ccccc3)C2)CC1` | 6.31 | falling, partial curve |
| `COc1ccc(Nc2nc(N3CCCC3)nc3ccccc23)c(OC)c1` | 12.59 | falling, partial curve |
| `O=C(CSc1ncnc2c1cnn2-c1ccccc1)Nc1ccccc1` | 3.162 | falling, single point |
| `Cc1ccc(NC(=O)CN2CCC3(O)CCCCC3C2c2ccc3c(c2)OCO3)c(C)c1` (stereo not shown) | 1 | rising, full curve, poor fit |
| `Cc1nnc(NC(=O)CCC(=O)N2CCC(C)CC2)s1` | 0.07943 | falling, full curve, poor fit |
| `CC12C=CC3(CN(Cc4ccccc4)C(=O)C3C1C(=O)NC1CC1)O2` (stereo not shown) | 1.259 | rising, partial curve |
| `C=CCn1c(=O)[nH]c2cc(C(=O)N3CCN(c4ccc(C(C)=O)cc4)CC3)ccc2c1=O` | 10 | rising, partial curve |
| `CCOC(=O)C1CCCN(Cc2cc(Br)ccc2OC)C1` (stereo not shown) | 3.162 | rising, partial curve |
| `COc1ccccc1CNc1ccnc(-c2ccc(C(=O)N(C)C)cc2)n1` | 3.981 | falling, single point |
| `CCOc1ccc(N(CC(=O)Nc2cccc(F)c2)S(=O)(=O)c2c(C)noc2C)cc1` | 15.85 | falling, single point |
| `O=C1c2[nH]nc(-c3ccccc3O)c2C(c2ccccc2F)N1Cc1ccco1` (stereo not shown) | 5.012 | rising, single point |
| `Cc1cccc(N2C(=O)CC(N(O)c3ccccc3)C2=O)c1` (stereo not shown) | 10 | rising, single point |
| `COc1ccccc1C(=O)Oc1ccc(N2C(=O)CCC2=O)cc1` | 1.585 | falling, full curve |
| `C=C1C(=O)O[C@@H]2[C@@H]1CC/C(C)=C\CC[C@@]1(C)O[C@H]21` | 5.012 | rising, full curve |
| `Cc1ccc(C)c(OCCCC(C)(C)C(=O)O)c1` | 1.259 | falling, full curve |
| `COc1cccc(-n2c(Cc3cc(=O)[nH]c(=O)[nH]3)nnc2SCC(=O)NC2CCCC2)c1` | 12.59 | rising, single point |
| `CCC(C)(C)NC(=O)C(c1ccccc1F)N(Cc1ccco1)C(=O)Cn1nnc2ccccc21` (stereo not shown) | 12.59 | rising, single point |
| `COc1ccc2oc(-c3ccc(O)cc3)cc(=O)c2c1` | 31.62 | falling, partial curve |
| `CNCCCCOc1ccccc1Cc1ccccc1` | 25.12 | falling, partial curve |
| `CCC(C)n1c(=O)c(C(=O)Nc2ccccc2S(N)(=O)=O)c(O)c2ccccc21` (stereo not shown) | 31.62 | falling, single point |
| `CC(C)n1cc2c3c(cccc31)[C@@H]1C[C@H](C(=O)O[C@@H](C)[C@H](C)O)CN(C)[C@H]1C2` | 31.62 | falling, single point |
| `O=C(O)CCC(=O)c1ccc2ccc3cccc4ccc1c2c34` | 1.259 | falling, partial curve, poor fit |
| `O=c1c(-c2ccc(F)cc2)nc2cnc(N3CCOCC3)nc2n1CCc1ccccc1` | 0.7943 | rising, full curve |
| `CCOC(=O)c1cc2oc(C)cc2n1CC(=O)OC1CCCCC1` | 19.95 | falling, single point |
| `O=C(CC(=O)c1ccccc1)Nc1ccc2c(c1)OCCO2` | 31.62 | falling, single point |
| `O=c1c(O)c(-c2ccc(O)cc2)oc2cc(O)ccc12` | 0.3981 | rising, full curve |
| `Cc1ccc(OCC(=O)Nc2ccc(O)c(-c3nc4ccccc4o3)c2)cc1` | 12.59 | falling, partial curve |
| `Cc1noc(C)c1COC(=O)C1(c2cccc(F)c2)CCCC1` | 10 | falling, partial curve |
| `Cc1[nH]c(=O)[nH]c(=O)c1S(=O)(=O)NCCc1ccc(S(N)(=O)=O)cc1` | 5.012 | falling, single point |
| `O=C(Nc1nc(-c2ccc(S(=O)(=O)N3CCCC3)cc2)cs1)C1COc2ccccc2O1` (stereo not shown) | 12.59 | falling, partial curve |
| `Cc1[nH]ccc2c1[nH]c1cc(=O)ccc12` | 12.59 | falling, partial curve |

For reference, 5 entries once more:

- COc1ccc(Nc2nc(N3CCCC3)nc3ccccc23)c(OC)c1 | AC50 12.59 µM (falling, partial curve)
- CCOC(=O)c1cc2oc(C)cc2n1CC(=O)OC1CCCCC1 | AC50 19.95 µM (falling, single point)
- O=C1c2cccc3cccc(c23)C(=O)N1c1cccnc1 | AC50 10 µM (falling, single point)
- COc1ccccc1CNc1ccnc(-c2ccc(C(=O)N(C)C)cc2)n1 | AC50 3.981 µM (falling, single point)
- COc1cccc(-n2c(Cc3cc(=O)[nH]c(=O)[nH]3)nnc2SCC(=O)NC2CCCC2)c1 | AC50 12.59 µM (rising, single point)